Values quoted from earlier work as cited in US20130078613A1, “Selection of HCV Treatment” (ROCHE MOLECULAR SYSTEMS, priority 2011, published 2013).
Where two headings read alike, the source gives them in different places. At least one compound was matched to its structure with a doubt left.

Tested on: HCV genotype 1
Conditions: cited from earlier work

CCC[C@H](NC(=O)[C@@H]1[C@H]2CCC[C@H]2CN1C(=O)[C@@H](NC(=O)[C@@H](NC(=O)c1cnccn1)C1CCCCC1)C(C)(C)C)C(=O)C(=O)NC1CC1 [telaprevir]
SVR rate (IL28B rs12979860 CC, 45/50): 90% | SVR rate (IL28B rs12979860 CT, 48/68): 71% | SVR rate (IL28B rs12979860 TT, 16/22): 73% | SVR (T12PR eRVR-guided group, overall, 271/363): 75%
